PubChem BioAssay AID1259254, NCATS | 2017
This is an unselected part of about 59,000 reagents. Over the whole deposit, about 1,550 (2.6%) are marked active. 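G2 share is only a proxy for re-replication; each gene was hit by three separate siRNAs, and active genes were retested.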 Reagents against one gene are numbered here. Further read-outs or replicates are left out here. The record does not give: the amount of reagent.

- Test: 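Gene knock-downs that lead to re-replication, shown by excess G2 DNA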 (primary screen)
- Cell system: human HCT116 colorectal cancer cells
- Reagent: single siRNA against human genes
- Time to read-out: 3 days
- Measured: 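Nuclei stained with Hoechst and imaged; cell-cycle phase assigned by DNA content; G2 share scaled per plate, non-targeting siRNA 0%, GMNN siRNA 100%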
- Direction: G2 robust z-score and G2 cells, % of GMNN control: higher = more G2 cells, more excess DNA replication
- Call rule: 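Active siRNAs have a G2 robust z of 5 or more median absolute deviations over the median, which in these data means about 38% or higher of GMNN control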

For ZNF564 #1, what was measured?
G2 robust z-score: -0.284; G2 cells, % of GMNN control: 0.972; call: inactive

What did the screen give for ZNF564 #2?
G2 robust z-score: 1.26; G2 cells, % of GMNN control: 11.8; call: inactive

What did the screen give for ZNF564 #3?
G2 robust z-score: 1.63; G2 cells, % of GMNN control: 14.4; call: inactive

Which result is listed for OPN5 #1?
G2 robust z-score: 1.38; G2 cells, % of GMNN control: 12.7; call: inactive

What did the screen give for OPN5 #2?
G2 robust z-score: -0.0624; G2 cells, % of GMNN control: 2.53; call: inactive

How did the screen score OPN5 #3?
G2 robust z-score: 0.711; G2 cells, % of GMNN control: 7.97; call: inactive

What is on record for HEG1 #1?
G2 robust z-score: -0.531; G2 cells, % of GMNN control: -0.768; call: inactive

With HEG1 #2, what does the deposit list?
G2 robust z-score: -0.846; G2 cells, % of GMNN control: -2.99; call: inactive

How did the screen score HEG1 #3?
G2 robust z-score: 1.08; G2 cells, % of GMNN control: 10.6; call: inactive

What did the screen give for BCAS3 #1?
G2 robust z-score: 4.89; G2 cells, % of GMNN control: 37.4; call: inactive

With BCAS3 #2, how do the results read?
G2 robust z-score: -0.196; G2 cells, % of GMNN control: 1.59; call: inactive

What did the screen give for BCAS3 #3?
G2 robust z-score: -0.645; G2 cells, % of GMNN control: -1.57; call: inactive

How did the screen score OR5D13 #1?
G2 robust z-score: 0.433; G2 cells, % of GMNN control: 6.02; call: inactive

What did the screen give for OR5D13 #2?
G2 robust z-score: 0.693; G2 cells, % of GMNN control: 7.84; call: inactive

How did the screen score OR5D13 #3?
G2 robust z-score: -0.32; G2 cells, % of GMNN control: 0.716; call: inactive

Which result is listed for PAXBP1 #1?
G2 robust z-score: 0.488; G2 cells, % of GMNN control: 6.4; call: inactive

With PAXBP1 #2, what was measured?
G2 robust z-score: -0.646; G2 cells, % of GMNN control: -1.58; call: inactive

Which result is listed for PAXBP1 #3?
G2 robust z-score: -0.987; G2 cells, % of GMNN control: -3.98; call: inactive

4 consecutive reagents from above, quoted:
BCAS3 #2 — G2 robust z-score = -0.196; G2 cells, % of GMNN control = 1.59; call = inactive
BCAS3 #3 — G2 robust z-score = -0.645; G2 cells, % of GMNN control = -1.57; call = inactive
OR5D13 #1 — G2 robust z-score = 0.433; G2 cells, % of GMNN control = 6.02; call = inactive
OR5D13 #2 — G2 robust z-score = 0.693; G2 cells, % of GMNN control = 7.84; call = inactive

Additional results:
How did the screen score TMEM45A #1?
G2 robust z-score: -0.896; G2 cells, % of GMNN control: -3.33; call: inactive

What did the screen give for TMEM45A #2?
G2 robust z-score: 0.644; G2 cells, % of GMNN control: 7.5; call: inactive

With TMEM45A #3, what does the deposit list?
G2 robust z-score: -0.191; G2 cells, % of GMNN control: 1.63; call: inactive

For SPZ1 #1, how do the results read?
G2 robust z-score: -0.494; G2 cells, % of GMNN control: -0.509; call: inactive

Which result is listed for SPZ1 #2?
G2 robust z-score: 0.234; G2 cells, % of GMNN control: 4.61; call: inactive

With SPZ1 #3, how do the results read?
G2 robust z-score: 0.798; G2 cells, % of GMNN control: 8.58; call: inactive

How did the screen score MRRF #1?
G2 robust z-score: -0.74; G2 cells, % of GMNN control: -2.24; call: inactive

For MRRF #2, how do the results read?
G2 robust z-score: 0.674; G2 cells, % of GMNN control: 7.71; call: inactive

How did the screen score MRRF #3?
G2 robust z-score: 0.818; G2 cells, % of GMNN control: 8.73; call: inactive

With OLMALINC #1, what does the deposit list?
G2 robust z-score: -0.669; G2 cells, % of GMNN control: -1.74; call: inactive

How did the screen score OLMALINC #2?
G2 robust z-score: 1.57; G2 cells, % of GMNN control: 14; call: inactive

For OLMALINC #3, how do the results read?
G2 robust z-score: 0.317; G2 cells, % of GMNN control: 5.19; call: inactive
